Results of single-concentration screens

The values are deposited in ChEMBL (CHEMBL3988442, “University of Dundee, Small-Polar-MMV Screening Library” (2021)).

The filed quantity is “Percent Effect” (%). The record does not define 0% and 100%; most values in the screen are far below 50% and negative numbers occur (in some assays of this library far below -100). The compounds are a random part of those screened.

Mtb cholesterol medium: 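Phenotypic screen: M. tuberculosis growth, cholesterol and DPPC medium, 4 days; the read-out is not stated. Tested at 500 µM. Higher reads as more growth inhibition (inferred: compounds with an IC50 in retests scored well above the rest). About 18,000 compounds were tested under these conditions; 5% (about 900) showed 50% or more at least once.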
Mtb glucose medium: 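Phenotypic screen: M. tuberculosis growth, glucose 7H9 medium, 3 days; the read-out is not stated. Compounds at 500 µM. Higher reads as more growth inhibition (inferred: compounds with an IC50 in retests scored well above the rest). About 18,000 compounds were tested under these conditions; 7.9% (about 1,400) showed 50% or more at least once.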

structure | Mtb cholesterol medium | Mtb glucose medium
CCCNS(=O)(=O)c1nc2nc(C)cc(C)n2n1 | 6.901 | -9.632
CC(=O)Nc1ccccc1CN(C)Cc1nccn1C | 5.753 | 8.73
NC1(c2nc(=O)c3c([nH]2)CCC3)CCCC1 | -4.307 | -0.5188
O=C(c1cn[nH]c1-c1cccs1)N1CCSCC1 | 28.03 | 20.77
COc1cccc(C(=O)NC2CCNCC2)c1 | -16.77 | -2.507
c1csc(C2CCCN2)n1 (stereo not shown) | 6.168 | 7.019
Cc1conc1CO | 7.192 | 7.825
CC(CO)NC(=O)c1ccc2c(c1)CCCC2 (stereo not shown) | 8.585 | 18.48
Cc1nc(C)c(I)c(N)n1 | -43.29 | -24.48
O=C(Nc1cccc(N2CCNC2=O)c1)C1CCCO1 (stereo not shown) | 26.03 | 14.85
NC(=O)C1CCN(C(=O)COc2ccc(F)cc2Br)C1 (stereo not shown) | 31.18 | 68.78
CCC(NC(=O)c1ccncc1I)C(=O)OC (stereo not shown) | 14.64 | 27.14
CN(C)S(=O)(=O)c1ccc(COC(=O)C2CC2)o1 | 63.04 | 62.72
CC(O)CNc1c[nH]c(=O)[nH]c1=O (stereo not shown) | 6.423 | 7.852
Cc1cc(C)nc(NC(=O)C(C)C)n1 | -24.8 | -8.5
CCCc1cc(=O)[nH]c(C(C)(N)CC)n1 (stereo not shown) | -2.297 | 20.48
CN(CCC1CCCN1C)CC(=O)N(C)C (stereo not shown) | -11.52 | -0.9604
Cl.Cl.N[C@@H]1CCN(c2cccnc2)C1 | 10.88 | 23.49
CCn1ccc(CN2CC[C@](C)(O)C(C)(C)C2)n1 | -6.587 | 3.901
CCN1CCCC1CNC(=O)c1cccc(OC)c1 (stereo not shown) | 12.78 | 39.18
O=C(Cc1cccc(O)c1)NCCCN1CCOCC1 | 10.26 | -0.9532
CCC(NC(=O)c1ccc(C#N)nc1)c1ccnn1C (stereo not shown) | 6.73 | 26.38
Cn1cc(C(=O)NCc2cccc(F)c2)ccc1=O | -7.69 | -3.376
NCCNC(=O)c1nc(-c2ccccc2)no1 | 19.69 | 11.72
C[C@H](NC(=O)c1cc(C(F)(F)F)ccc1F)C(N)=O | -11.5 | 9.665
COc1cccc([C@@H]2C[C@H]2N)c1 | 50.33 | 37.21
N#Cc1ccccc1CN1CCn2ccnc2C1 | -21.73 | -11.65
O=C(Cc1cccs1)N1CCC(Nc2cccnc2)C1 (stereo not shown) | 17.18 | 27
CN(C)[C@@H]1CN(C(=O)c2cncn2C)C[C@H]1CO | 1.694 | 4.802
CN1CC2(CCN(Cc3nccn3C)CC2)OC1=O | 1.693 | 6.853
CN(Cc1c(F)cccc1Cl)S(=O)(=O)N1CCOCC1 | 53.95 | 66.06
Cc1ccc(C(=O)N2CCN(CC(C)O)CC2)cc1Cl (stereo not shown) | 1.601 | 20.97
CN(C)C(=O)Cc1ccc(-c2ccccc2CO)cc1 | 30.91 | 43.65
O=C(NCCCN1CCc2ccccc2C1)C1CC1 | 18.31 | 11.73
CC(C)(N)c1nc(C2CC2)cc(=O)[nH]1 | -10.09 | -3.474
O=C(CC1COc2ccccc2O1)N1CCOCC1 (stereo not shown) | -1.615 | 55.46
CN(C)CC1CCN(CCC(=O)N2CCOCC2)CC1 | 18.35 | 14.86
CCN(C)S(=O)(=O)Nc1cc(Cl)c(OC)c(Cl)c1 | 15.35 | 9.612
CNCc1ccc(N(C)C)nc1 | -1.909 | 2.92
Cn1ccnc1SCCNCC1(O)CNCCOC1 (stereo not shown) | 5.674 | 13.63
CC1CCc2onc(C(=O)Nc3cccnc3)c2C1 (stereo not shown) | -16.93 | -5.613
Nc1nc(N)nc(COC(=O)Cc2ccsc2)n1 | 1.132 | 14.3
Cc1cc(N2CCCC(NS(C)(=O)=O)C2)nc(C)n1 (stereo not shown) | -10.34 | -7.928
O=C(NC1CCC(O)CC1)c1ccc2ccccc2n1 (stereo not shown) | 3.208 | -4.498
c1cc(CNCCn2cccn2)c2c(c1)OCCCO2 | 26.84 | 23.66
NCC1CCN(c2ncccn2)CC1 | -4.21 | 20.32
O=C(NCc1ccc2c(c1)OCO2)NCC(F)(F)F | 35.7 | 43.53
Cc1noc(C)c1S(=O)(=O)N1CC[S+]([O-])C(C)(C)C1 (stereo not shown) | -0.4032 | -3.46
N[C@H]1CN(C(=O)c2sccc2Cl)C[C@@H]1C1CC1 | 1.331 | -5.73
CS(=O)(=O)c1cccc(OCCN2CCCSCC2)c1 | 12.65 | 26.65
O=C(CN1CC(O)(C2CC2)C1)Nc1ccccc1F | 7.498 | 26.85
Cc1ccc(NCc2cc[nH]n2)cc1S(C)(=O)=O | -10.26 | -6.791
CC(=O)Nc1cccnc1NC(=O)Cc1ccc(C)s1 | 10.95 | 24.54
CCC(CC)C(=O)NCC(C)(O)CSC (stereo not shown) | 2.094 | 12.85
CC(C)(C)c1nc(CCN)no1 | -4.205 | 12.96
O=C(NCCCNCc1ccccc1)c1ccco1 | 14.57 | 7.599
CNCC(=O)NCCCc1nc2c(C)c(C)ccc2[nH]1 | 3.916 | 16.81
CC(=O)Nc1ccc(N2CCN(S(C)(=O)=O)CC2)cc1 | 2.386 | 1.583
Brc1cc2c(cc1CN1CCCNCC1)OCO2 | 64.29 | 71.81

The first 3 entries again:

| structure | Mtb cholesterol medium | Mtb glucose medium |
|---|---|---|
| `CCCNS(=O)(=O)c1nc2nc(C)cc(C)n2n1` | 6.901 | -9.632 |
| `CC(=O)Nc1ccccc1CN(C)Cc1nccn1C` | 5.753 | 8.73 |
| `NC1(c2nc(=O)c3c([nH]2)CCC3)CCCC1` | -4.307 | -0.5188 |